Values quoted from earlier work in patent US20140341895A1, “PSEUDOMONAS AERUGINOSA OprM EPITOPES FOR USE IN DIAGNOSTICS AND THERAPEUTICS” (priority 2011, published 2014).
At least one structure is not confirmed: it was looked up by name or label, or the drawing left a doubt.

System: P. aeruginosa strain MSC06120
Details: multidrug resistant P. aeruginosa strain MSC06120; stated as normal values; cited from earlier work

Structure (SMILES): C[C@@H](O)[C@H]1C(=O)N2C(C(=O)O)=C(SCCN=CN)C[C@H]12 [imipenem]
- growth inhibitory concentration: 32 µg/mL
